In patent publication US6489322B1, “Amidine derivatives as inhibitors of nitric oxide synthase” (AstraZeneca AB, priority 1997, dated 2002):
Some entries share one result that the patent states for a list of compounds. At least one compound was matched to its structure with a doubt left.

Molecular target: T1, neuronal nitric oxide synthase (Rattus norvegicus, UniProt P29476)
T1 construct: Cerebellar or hippocampal supernatant is prepared by homogenisation; from tissue; host or cells: cerebellum or hippocampus of male Sprague-Dawley rat
Experiment: Screen for neuronal nitric oxide synthase inhibiting activity (3H-L-arginine to 3H-L-citrulline conversion)
Type: biochemical
Conditions: for IC50: enzyme from rat hippocampus or cerebellum, read-out: IC50 values for inhibition of neuronal nitric oxide synthase; for selectivity for inhibition of the neuronal isoform of the enzyme: neuronal versus endothelial nitric oxide synthase screens

Row | Compound | IC50 [µM] | selectivity for inhibition of the neuronal isoform of the enzyme
1 | CC(C)N1CCOc2ccc(NC(=N)c3cccs3)cc2C1.CC(C)N1CCOc2ccc(NC(=N)c3cccs3)cc2C1.O=C(O)/C=C/C(=O)O [Example 4, N-(4-Isopropyl-2,3,4,5-tetrahydro-1,4-benzoxazepin-7-yl)-2-thiophenecarboximidamide hemifumarate] | < 10 | good selectivity
2 | N-(4-Propyl-2,3,4,5-tetrahydro-1,4-benzoxazepin-7-yl)-2-thiophenecarboximidamide hemifumarate [Example 3] | < 10 | good selectivity
